Measured values: the supplement of paper PMC12823440, “Inhibitors supercharge kinase turnover through native proteolytic circuits” (Nature, 2025)
Structures can show the parent of a compound that is named as a salt. The list shows a part of the results. The calls rarely recur for the same compound in another form.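 In K562 cells expressing nanoluciferase-fused kinases, luminescence was recorded at 4 h intervals between 2 and 18 h, normalized as percent of control with DMSO at 100% and a positive control at 0%. A significant (2 sigma) signal drop marks a time point as decreased. The authors' rule for a hit is not shown and takes in more than the number of time points.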

Protein sequences, listed by entry. Tags and fused reporters are not part of them. Lines headed by an entry give the natural chain unless they say otherwise; changes in a name come on top.
UniProt Q15303, whole entry R711C: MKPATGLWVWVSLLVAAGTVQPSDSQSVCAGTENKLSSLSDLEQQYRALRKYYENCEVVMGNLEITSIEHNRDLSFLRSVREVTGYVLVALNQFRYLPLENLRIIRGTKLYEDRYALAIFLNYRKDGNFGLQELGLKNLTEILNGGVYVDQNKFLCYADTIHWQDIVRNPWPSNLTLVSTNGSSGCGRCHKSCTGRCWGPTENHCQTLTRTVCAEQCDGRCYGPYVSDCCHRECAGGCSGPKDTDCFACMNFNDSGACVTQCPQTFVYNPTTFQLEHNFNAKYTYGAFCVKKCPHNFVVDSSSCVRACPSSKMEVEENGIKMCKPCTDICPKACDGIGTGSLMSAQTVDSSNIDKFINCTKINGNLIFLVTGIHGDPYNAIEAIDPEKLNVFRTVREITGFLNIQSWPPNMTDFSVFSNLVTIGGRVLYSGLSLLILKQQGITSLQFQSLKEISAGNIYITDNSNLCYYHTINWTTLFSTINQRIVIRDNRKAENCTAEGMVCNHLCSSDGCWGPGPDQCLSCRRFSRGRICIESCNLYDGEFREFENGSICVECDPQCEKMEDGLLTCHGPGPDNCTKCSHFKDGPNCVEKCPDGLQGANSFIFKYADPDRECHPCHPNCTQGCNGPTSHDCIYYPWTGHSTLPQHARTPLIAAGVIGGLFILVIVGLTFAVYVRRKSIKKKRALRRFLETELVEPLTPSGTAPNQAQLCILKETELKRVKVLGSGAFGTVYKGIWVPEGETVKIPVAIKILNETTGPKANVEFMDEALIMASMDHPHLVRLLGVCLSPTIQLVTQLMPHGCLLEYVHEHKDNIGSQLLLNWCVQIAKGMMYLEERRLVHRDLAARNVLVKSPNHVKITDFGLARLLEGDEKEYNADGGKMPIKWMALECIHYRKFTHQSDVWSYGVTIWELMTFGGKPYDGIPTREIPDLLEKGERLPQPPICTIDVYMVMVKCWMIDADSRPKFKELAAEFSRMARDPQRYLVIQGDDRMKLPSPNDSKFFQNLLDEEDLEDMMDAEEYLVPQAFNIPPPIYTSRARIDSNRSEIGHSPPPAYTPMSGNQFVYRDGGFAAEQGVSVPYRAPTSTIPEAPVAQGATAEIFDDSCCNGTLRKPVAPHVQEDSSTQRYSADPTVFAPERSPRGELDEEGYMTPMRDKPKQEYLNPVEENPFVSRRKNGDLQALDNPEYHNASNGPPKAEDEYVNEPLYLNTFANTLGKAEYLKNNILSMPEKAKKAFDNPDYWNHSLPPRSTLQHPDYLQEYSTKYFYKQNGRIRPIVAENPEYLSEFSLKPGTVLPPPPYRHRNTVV
UniProt O75460: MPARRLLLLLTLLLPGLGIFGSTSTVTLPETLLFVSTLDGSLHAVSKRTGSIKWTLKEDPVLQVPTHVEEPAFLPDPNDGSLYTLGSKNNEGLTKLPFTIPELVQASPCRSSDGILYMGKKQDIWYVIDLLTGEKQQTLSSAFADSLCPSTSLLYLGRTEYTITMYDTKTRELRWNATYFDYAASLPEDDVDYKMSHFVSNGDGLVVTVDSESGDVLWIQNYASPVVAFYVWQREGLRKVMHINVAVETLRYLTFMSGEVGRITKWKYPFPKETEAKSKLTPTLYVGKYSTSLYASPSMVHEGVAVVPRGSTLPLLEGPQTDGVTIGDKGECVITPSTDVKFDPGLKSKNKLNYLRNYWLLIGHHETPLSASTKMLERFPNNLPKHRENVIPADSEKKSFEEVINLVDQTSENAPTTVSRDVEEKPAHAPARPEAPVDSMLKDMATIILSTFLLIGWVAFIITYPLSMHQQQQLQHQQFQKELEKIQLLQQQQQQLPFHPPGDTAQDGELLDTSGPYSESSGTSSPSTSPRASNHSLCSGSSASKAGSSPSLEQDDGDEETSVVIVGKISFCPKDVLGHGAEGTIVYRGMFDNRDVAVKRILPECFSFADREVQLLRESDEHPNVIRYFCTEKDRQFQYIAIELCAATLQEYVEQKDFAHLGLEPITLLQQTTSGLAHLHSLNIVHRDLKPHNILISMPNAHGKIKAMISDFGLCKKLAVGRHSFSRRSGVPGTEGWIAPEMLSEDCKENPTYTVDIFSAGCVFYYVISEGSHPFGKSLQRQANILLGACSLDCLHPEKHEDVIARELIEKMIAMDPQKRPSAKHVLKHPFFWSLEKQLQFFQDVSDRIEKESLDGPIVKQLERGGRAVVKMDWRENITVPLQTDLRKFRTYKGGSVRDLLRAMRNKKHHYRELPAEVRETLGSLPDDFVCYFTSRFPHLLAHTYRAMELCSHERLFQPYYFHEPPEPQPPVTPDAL
UniProt P11362, whole entry, looked up: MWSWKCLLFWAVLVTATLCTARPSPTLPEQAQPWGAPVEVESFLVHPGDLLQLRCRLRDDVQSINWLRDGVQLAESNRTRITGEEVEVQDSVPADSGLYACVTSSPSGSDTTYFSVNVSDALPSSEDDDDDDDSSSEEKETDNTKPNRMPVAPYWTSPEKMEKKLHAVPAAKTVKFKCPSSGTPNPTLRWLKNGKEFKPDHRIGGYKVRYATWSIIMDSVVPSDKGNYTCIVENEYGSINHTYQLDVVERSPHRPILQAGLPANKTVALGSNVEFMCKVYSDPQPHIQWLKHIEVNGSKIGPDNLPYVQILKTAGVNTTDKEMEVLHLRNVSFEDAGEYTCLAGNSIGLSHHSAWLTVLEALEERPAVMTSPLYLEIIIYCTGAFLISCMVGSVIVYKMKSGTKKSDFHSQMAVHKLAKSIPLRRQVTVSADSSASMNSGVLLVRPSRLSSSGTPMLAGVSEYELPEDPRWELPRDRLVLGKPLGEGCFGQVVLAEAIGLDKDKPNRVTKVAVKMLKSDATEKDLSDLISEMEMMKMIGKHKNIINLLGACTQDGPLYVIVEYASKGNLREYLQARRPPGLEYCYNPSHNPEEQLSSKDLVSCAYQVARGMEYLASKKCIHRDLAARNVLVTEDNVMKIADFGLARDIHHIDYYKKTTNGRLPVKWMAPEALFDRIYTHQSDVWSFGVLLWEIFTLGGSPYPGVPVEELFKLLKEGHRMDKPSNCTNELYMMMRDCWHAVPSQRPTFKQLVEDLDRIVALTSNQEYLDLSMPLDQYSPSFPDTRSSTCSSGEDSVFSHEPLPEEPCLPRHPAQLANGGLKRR
UniProt P22607, whole entry, looked up: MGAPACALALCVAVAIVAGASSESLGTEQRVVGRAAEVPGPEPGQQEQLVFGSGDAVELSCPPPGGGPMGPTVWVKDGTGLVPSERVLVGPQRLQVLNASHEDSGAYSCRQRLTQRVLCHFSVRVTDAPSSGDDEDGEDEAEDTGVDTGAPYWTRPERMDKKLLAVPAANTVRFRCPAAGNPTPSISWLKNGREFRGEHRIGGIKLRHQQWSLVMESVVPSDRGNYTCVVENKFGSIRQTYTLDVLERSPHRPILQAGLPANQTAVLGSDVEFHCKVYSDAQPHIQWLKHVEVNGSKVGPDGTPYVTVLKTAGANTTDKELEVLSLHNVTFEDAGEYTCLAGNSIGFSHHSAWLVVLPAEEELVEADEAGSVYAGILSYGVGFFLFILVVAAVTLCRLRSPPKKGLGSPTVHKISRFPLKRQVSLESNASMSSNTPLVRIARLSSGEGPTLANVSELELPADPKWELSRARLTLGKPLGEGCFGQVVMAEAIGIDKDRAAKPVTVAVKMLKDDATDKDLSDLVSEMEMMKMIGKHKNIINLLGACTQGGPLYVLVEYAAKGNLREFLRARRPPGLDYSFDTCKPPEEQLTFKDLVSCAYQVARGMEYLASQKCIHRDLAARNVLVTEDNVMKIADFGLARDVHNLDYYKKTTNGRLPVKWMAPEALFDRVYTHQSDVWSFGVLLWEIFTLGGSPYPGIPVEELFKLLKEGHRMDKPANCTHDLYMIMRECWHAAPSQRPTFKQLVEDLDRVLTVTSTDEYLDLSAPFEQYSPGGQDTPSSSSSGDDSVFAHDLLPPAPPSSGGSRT
UniProt P06241, whole entry, looked up: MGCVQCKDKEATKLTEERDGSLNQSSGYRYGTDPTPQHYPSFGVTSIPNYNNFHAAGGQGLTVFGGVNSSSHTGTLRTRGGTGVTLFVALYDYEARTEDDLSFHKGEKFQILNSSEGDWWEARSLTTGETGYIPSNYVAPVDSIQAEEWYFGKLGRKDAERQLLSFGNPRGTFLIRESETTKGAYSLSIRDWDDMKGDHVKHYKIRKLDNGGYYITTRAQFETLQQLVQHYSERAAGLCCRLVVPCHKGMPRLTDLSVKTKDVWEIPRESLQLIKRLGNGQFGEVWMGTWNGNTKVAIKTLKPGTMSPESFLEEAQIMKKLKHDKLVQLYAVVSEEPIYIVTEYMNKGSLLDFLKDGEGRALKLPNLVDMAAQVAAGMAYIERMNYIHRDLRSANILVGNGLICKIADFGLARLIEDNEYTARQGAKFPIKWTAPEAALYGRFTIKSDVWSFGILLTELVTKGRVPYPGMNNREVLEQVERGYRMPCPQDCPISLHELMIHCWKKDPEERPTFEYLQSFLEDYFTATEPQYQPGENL
UniProt P49840: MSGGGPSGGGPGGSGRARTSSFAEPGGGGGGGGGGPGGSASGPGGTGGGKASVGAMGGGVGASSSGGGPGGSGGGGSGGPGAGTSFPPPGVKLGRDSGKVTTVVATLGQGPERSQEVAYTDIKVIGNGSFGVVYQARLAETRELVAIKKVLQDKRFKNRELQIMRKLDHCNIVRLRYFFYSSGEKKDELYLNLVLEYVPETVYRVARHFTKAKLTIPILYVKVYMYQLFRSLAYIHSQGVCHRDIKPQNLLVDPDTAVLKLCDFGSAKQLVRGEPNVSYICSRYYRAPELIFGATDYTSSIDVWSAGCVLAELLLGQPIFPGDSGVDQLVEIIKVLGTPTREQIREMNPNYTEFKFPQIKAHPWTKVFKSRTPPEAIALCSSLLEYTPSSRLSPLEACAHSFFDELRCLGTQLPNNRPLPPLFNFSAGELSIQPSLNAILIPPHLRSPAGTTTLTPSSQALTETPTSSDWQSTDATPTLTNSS
UniProt P14616: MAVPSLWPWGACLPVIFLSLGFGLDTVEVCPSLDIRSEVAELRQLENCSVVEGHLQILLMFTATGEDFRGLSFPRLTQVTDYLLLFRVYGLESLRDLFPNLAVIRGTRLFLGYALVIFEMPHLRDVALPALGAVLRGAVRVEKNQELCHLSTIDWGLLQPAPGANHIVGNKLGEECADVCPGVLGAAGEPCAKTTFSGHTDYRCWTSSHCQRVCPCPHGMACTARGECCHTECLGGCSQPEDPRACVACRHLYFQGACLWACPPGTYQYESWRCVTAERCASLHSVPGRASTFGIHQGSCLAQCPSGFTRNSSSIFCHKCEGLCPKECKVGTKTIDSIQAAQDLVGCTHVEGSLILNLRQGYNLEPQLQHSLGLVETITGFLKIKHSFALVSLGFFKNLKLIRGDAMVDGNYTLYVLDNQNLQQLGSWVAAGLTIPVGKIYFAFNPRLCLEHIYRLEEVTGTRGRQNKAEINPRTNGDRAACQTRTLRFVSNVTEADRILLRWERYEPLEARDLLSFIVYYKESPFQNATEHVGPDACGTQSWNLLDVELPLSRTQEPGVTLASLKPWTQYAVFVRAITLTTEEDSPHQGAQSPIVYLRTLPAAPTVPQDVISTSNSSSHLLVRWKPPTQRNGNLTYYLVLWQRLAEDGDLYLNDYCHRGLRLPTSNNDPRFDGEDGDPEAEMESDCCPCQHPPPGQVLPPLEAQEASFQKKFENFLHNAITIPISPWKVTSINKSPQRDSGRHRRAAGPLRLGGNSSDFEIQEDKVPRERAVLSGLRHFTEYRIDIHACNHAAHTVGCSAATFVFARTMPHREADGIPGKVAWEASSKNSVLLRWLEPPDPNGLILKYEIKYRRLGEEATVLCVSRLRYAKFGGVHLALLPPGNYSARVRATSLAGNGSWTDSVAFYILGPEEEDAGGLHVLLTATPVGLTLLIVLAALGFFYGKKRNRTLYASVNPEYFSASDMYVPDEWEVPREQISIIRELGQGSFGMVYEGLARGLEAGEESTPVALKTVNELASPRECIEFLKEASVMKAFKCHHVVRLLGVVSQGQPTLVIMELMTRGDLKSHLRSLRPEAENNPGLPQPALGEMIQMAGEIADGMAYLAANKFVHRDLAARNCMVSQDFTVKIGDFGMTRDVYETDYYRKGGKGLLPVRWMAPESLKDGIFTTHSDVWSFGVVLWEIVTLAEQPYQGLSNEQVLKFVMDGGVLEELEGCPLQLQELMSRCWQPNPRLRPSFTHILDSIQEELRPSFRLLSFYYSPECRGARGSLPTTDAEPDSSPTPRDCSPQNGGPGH

Legend:
Test in all cases: kinase-Nluc reporter destabilization hit call (1 = scored as downregulated) (binary); higher = compound decreases kinase abundance
Settings in all cases: K562; 2-18 h
EGFR = EGFR (UniProt P00533)
EGFR_G719S = EGFR_G719S (UniProt P00533)
EGFR_G719S_T790M = EGFR_G719S_T790M (UniProt P00533)
EGFR_L718V = EGFR_L718V (UniProt P00533)
EGFR_L858R = EGFR_L858R (UniProt P00533)
EGFR_L861Q = EGFR_L861Q (UniProt P00533)
EGFR_T790M = EGFR_T790M (UniProt P00533)
EPHA2 = EPHA2 (UniProt P29317)
ERBB3 = ERBB3 (UniProt P21860)
[1] = target: ERBB4_R711C (clone: ERBB4_mut) (UniProt Q15303)
ERN1 = ERN1 (UniProt O75460)
FGFR1 = FGFR1 (UniProt P11362)
FGFR2 = FGFR2 (UniProt P21802)
FGFR3 = FGFR3 (UniProt P22607)
FGR = FGR (UniProt P09769)
FLT3 = FLT3 (UniProt P36888)
FYN = FYN (UniProt P06241)
GSK3A = GSK3A (UniProt P49840)
HER2 = HER2 (UniProt P04626)
INSRR = INSRR (UniProt P14616)

Measured: kinase-Nluc reporter destabilization hit call

O=C(/C=C/c1ccc(O)c(O)c1)OC1CC(OC(=O)/C=C/c2ccc(O)c(O)c2)(C(=O)O)CC(O)C1O (stereo not given) [1,3-Dicaffeoylquinic acid] (10 µM)
inactive: EGFR 0 | EGFR_G719S 0 | EGFR_G719S_T790M 0 | EGFR_L718V 0 | EGFR_L858R 0 | EGFR_L861Q 0 | EGFR_T790M 0 | EPHA2 = 0 | ERBB3 = 0 | [1] 0 | ERN1 = 0 | FGFR1 = 0 | FGFR2 = 0 | FGFR3 = 0 | FGR 0 | FLT3 = 0 | FYN 0 | GSK3A 0 | HER2 = 0 | INSRR 0

CCc1cc(O)c(F)cc1-c1ccc2c(-c3nc4c([nH]3)CN(C3CCN(C)CC3)CC4)n[nH]c2c1 [JAK-IN-5 (hydrochloride)] (2 µM)
inactive: EGFR 0 | EGFR_G719S 0 | EGFR_G719S_T790M 0 | EGFR_L718V 0 | EGFR_L858R 0 | EGFR_L861Q 0 | EGFR_T790M 0 | EPHA2 = 0 | ERBB3 = 0 | [1] 0 | ERN1 = 0 | FGFR1 = 0 | FGFR2 = 0 | FGFR3 = 0 | FGR 0 | FLT3 = 0 | FYN 0 | GSK3A 0 | HER2 = 0 | INSRR 0

O=C(NC(NC(=S)Nc1ccc(F)c([N+](=O)[O-])c1)C(Cl)(Cl)Cl)C(c1ccccc1)c1ccccc1 (stereo not given) (10 µM)
inactive: EGFR 0 | EGFR_G719S 0 | EGFR_G719S_T790M 0 | EGFR_L718V 0 | EGFR_L858R 0 | EGFR_L861Q 0 | EGFR_T790M 0 | EPHA2 = 0 | ERBB3 = 0 | [1] 0 | ERN1 = 0 | FGFR1 = 0 | FGFR2 = 0 | FGFR3 = 0 | FGR 0 | FLT3 = 0 | FYN 0 | GSK3A 0 | HER2 = 0 | INSRR 0

NCCN1CCN(C/C=C/C(=O)N2CCC[C@@H](n3nc(-c4ccc(Oc5ccccc5)cc4)c4c(N)ncnc43)C2)CC1 [Ibrutinib-MPEA] (10 µM)
inactive: EGFR 0 | EGFR_G719S 0 | EGFR_G719S_T790M 0 | EGFR_L718V 0 | EGFR_L858R 0 | EGFR_L861Q 0 | EGFR_T790M 0 | EPHA2 = 0 | ERBB3 = 0 | [1] 0 | ERN1 = 0 | FGFR1 = 0 | FGFR2 = 0 | FGFR3 = 0 | FGR 0 | FLT3 = 0 | FYN 0 | GSK3A 0 | HER2 = 0 | INSRR 0

Cc1cc(-c2cc(OC(=O)c3ccccc3)ccc2Cl)cc2nnc(Nc3ccc(OCCN4CCCC4)cc3)nc12 (0.5 µM)
inactive: EGFR 0 | EGFR_G719S 0 | EGFR_G719S_T790M 0 | EGFR_L718V 0 | EGFR_L858R 0 | EGFR_L861Q 0 | EGFR_T790M 0 | EPHA2 = 0 | ERBB3 = 0 | [1] 0 | ERN1 = 0 | FGFR1 = 0 | FGFR2 = 0 | FGFR3 = 0 | FGR 0 | FLT3 = 0 | FYN 0 | GSK3A 0 | HER2 = 0 | INSRR 0

COc1ccc(C(=O)Nc2sc3c(c2C(N)=O)CCCC3)cc1OC (10 µM)
inactive: EGFR 0 | EGFR_G719S 0 | EGFR_G719S_T790M 0 | EGFR_L718V 0 | EGFR_L858R 0 | EGFR_L861Q 0 | EGFR_T790M 0 | EPHA2 = 0 | ERBB3 = 0 | [1] 0 | ERN1 = 0 | FGFR1 = 0 | FGFR2 = 0 | FGFR3 = 0 | FGR 0 | FLT3 = 0 | FYN 0 | GSK3A 0 | HER2 = 0 | INSRR 0

COc1ccc(C2CC(c3ccccc3)=NN2c2ccc(S(N)(=O)=O)cc2)cc1 (stereo not given) (10 µM)
inactive: EGFR 0 | EGFR_G719S 0 | EGFR_G719S_T790M 0 | EGFR_L718V 0 | EGFR_L858R 0 | EGFR_L861Q 0 | EGFR_T790M 0 | EPHA2 = 0 | ERBB3 = 0 | [1] 0 | ERN1 = 0 | FGFR1 = 0 | FGFR2 = 0 | FGFR3 = 0 | FGR 0 | FLT3 = 0 | FYN 0 | GSK3A 0 | HER2 = 0 | INSRR 0

CN(C)CCN(Cc1ccc(Cl)cc1)c1ccccn1 [Chloropyramine hydrochloride] (10 µM)
inactive: EGFR 0 | EGFR_G719S 0 | EGFR_G719S_T790M 0 | EGFR_L718V 0 | EGFR_L858R 0 | EGFR_L861Q 0 | EGFR_T790M 0 | EPHA2 = 0 | ERBB3 = 0 | [1] 0 | ERN1 = 0 | FGFR1 = 0 | FGFR2 = 0 | FGFR3 = 0 | FGR 0 | FLT3 = 0 | FYN 0 | GSK3A 0 | HER2 = 0 | INSRR 0

CC(C)(C)NC(=O)c1cncn1C1CCN(c2ccc(-c3nnc(C(F)(F)F)o3)cn2)CC1 (10 µM)
inactive: EGFR 0 | EGFR_G719S 0 | EGFR_G719S_T790M 0 | EGFR_L718V 0 | EGFR_L858R 0 | EGFR_L861Q 0 | EGFR_T790M 0 | EPHA2 = 0 | ERBB3 = 0 | [1] 0 | ERN1 = 0 | FGFR1 = 0 | FGFR2 = 0 | FGFR3 = 0 | FGR 0 | FLT3 = 0 | FYN 0 | GSK3A 0 | HER2 = 0 | INSRR 0

Arranged by SMILES length (largest number first): three of the compounds above.
O=C(NC(NC(=S)Nc1ccc(F)c([N+](=O)[O-])c1)C(Cl)(Cl)Cl)C(c1ccccc1)c1ccccc1 (stereo not given) (10 µM)
inactive: EGFR 0 | EGFR_G719S 0 | EGFR_G719S_T790M 0 | EGFR_L718V 0 | EGFR_L858R 0 | EGFR_L861Q 0 | EGFR_T790M 0 | EPHA2 = 0 | ERBB3 = 0 | [1] 0 | ERN1 = 0 | FGFR1 = 0 | FGFR2 = 0 | FGFR3 = 0 | FGR 0 | FLT3 = 0 | FYN 0 | GSK3A 0 | HER2 = 0 | INSRR 0

CC(C)(C)NC(=O)c1cncn1C1CCN(c2ccc(-c3nnc(C(F)(F)F)o3)cn2)CC1 (10 µM)
inactive: EGFR 0 | EGFR_G719S 0 | EGFR_G719S_T790M 0 | EGFR_L718V 0 | EGFR_L858R 0 | EGFR_L861Q 0 | EGFR_T790M 0 | EPHA2 = 0 | ERBB3 = 0 | [1] 0 | ERN1 = 0 | FGFR1 = 0 | FGFR2 = 0 | FGFR3 = 0 | FGR 0 | FLT3 = 0 | FYN 0 | GSK3A 0 | HER2 = 0 | INSRR 0

COc1ccc(C2CC(c3ccccc3)=NN2c2ccc(S(N)(=O)=O)cc2)cc1 (stereo not given) (10 µM)
inactive: EGFR 0 | EGFR_G719S 0 | EGFR_G719S_T790M 0 | EGFR_L718V 0 | EGFR_L858R 0 | EGFR_L861Q 0 | EGFR_T790M 0 | EPHA2 = 0 | ERBB3 = 0 | [1] 0 | ERN1 = 0 | FGFR1 = 0 | FGFR2 = 0 | FGFR3 = 0 | FGR 0 | FLT3 = 0 | FYN 0 | GSK3A 0 | HER2 = 0 | INSRR 0

Going on with the list:

O=C(Nc1ccc(F)cc1F)[C@H](NC(=S)Nc1cc(C(F)(F)F)cc(C(F)(F)F)c1)c1ccccc1 (2.5 µM)
inactive: EGFR 0 | EGFR_G719S 0 | EGFR_G719S_T790M 0 | EGFR_L718V 0 | EGFR_L858R 0 | EGFR_L861Q 0 | EGFR_T790M 0 | EPHA2 = 0 | ERBB3 = 0 | [1] 0 | ERN1 = 0 | FGFR1 = 0 | FGFR2 = 0 | FGFR3 = 0 | FGR 0 | FLT3 = 0 | FYN 0 | GSK3A 0 | HER2 = 0 | INSRR 0

OC[C@H]1O[C@@H](Oc2cc3c(O)cc(O)cc3[o+]c2-c2cc(O)c(O)c(O)c2)[C@H](O)[C@@H](O)[C@@H]1O [Delphinidin 3-glucoside (chloride)] (10 µM)
inactive: EGFR 0 | EGFR_G719S 0 | EGFR_G719S_T790M 0 | EGFR_L718V 0 | EGFR_L858R 0 | EGFR_L861Q 0 | EGFR_T790M 0 | EPHA2 = 0 | ERBB3 = 0 | [1] 0 | ERN1 = 0 | FGFR1 = 0 | FGFR2 = 0 | FGFR3 = 0 | FGR 0 | FLT3 = 0 | FYN 0 | GSK3A 0 | HER2 = 0 | INSRR 0

COc1cc2ncnc(Nc3cccc(Cl)c3)c2cc1OC (10 µM)
inactive: EGFR 0 | EGFR_G719S 0 | EGFR_G719S_T790M 0 | EGFR_L718V 0 | EGFR_L858R 0 | EGFR_L861Q 0 | EGFR_T790M 0 | EPHA2 = 0 | ERBB3 = 0 | [1] 0 | ERN1 = 0 | FGFR1 = 0 | FGFR2 = 0 | FGFR3 = 0 | FGR 0 | FLT3 = 0 | FYN 0 | GSK3A 0 | HER2 = 0 | INSRR 0

Cc1c(CN2CCN(S(C)(=O)=O)CC2)sc2c(N3CCOCC3)nc(-c3cnc(N)nc3)nc12 (2.5 µM)
inactive: EGFR 0 | EGFR_G719S 0 | EGFR_G719S_T790M 0 | EGFR_L718V 0 | EGFR_L858R 0 | EGFR_L861Q 0 | EGFR_T790M 0 | EPHA2 = 0 | ERBB3 = 0 | [1] 0 | ERN1 = 0 | FGFR1 = 0 | FGFR2 = 0 | FGFR3 = 0 | FGR 0 | FLT3 = 0 | FYN 0 | GSK3A 0 | HER2 = 0 | INSRR 0

CCN(CC)c1ccc2cc(C(=O)N3CCN(C(=O)C4=Cc5c(Br)cccc5S4(=O)=O)CC3)c(=O)oc2c1 (2 µM)
inactive: EGFR 0 | EGFR_G719S 0 | EGFR_G719S_T790M 0 | EGFR_L718V 0 | EGFR_L858R 0 | EGFR_L861Q 0 | EGFR_T790M 0 | EPHA2 = 0 | ERBB3 = 0 | [1] 0 | ERN1 = 0 | FGFR1 = 0 | FGFR2 = 0 | FGFR3 = 0 | FGR 0 | FLT3 = 0 | FYN 0 | GSK3A 0 | HER2 = 0 | INSRR 0

CO[C@H]1C[C@@H]2CC[C@@H](C)[C@@](O)(O2)C(=O)C(=O)N2CCCC[C@H]2C(=O)O[C@H]([C@H](C)C[C@@H]2CC[C@@H](O)[C@H](OC)C2)CC(=O)[C@H](C)/C=C(\C)[C@@H](O)[C@@H](OC)C(=O)[C@H](C)C[C@H](C)/C=C/C=C/C=C/1C [Rapamycin] (10 µM)
inactive: EGFR 0 | EGFR_G719S 0 | EGFR_G719S_T790M 0 | EGFR_L718V 0 | EGFR_L858R 0 | EGFR_L861Q 0 | EGFR_T790M 0 | EPHA2 = 0 | ERBB3 = 0 | [1] 0 | ERN1 = 0 | FGFR1 = 0 | FGFR2 = 0 | FGFR3 = 0 | FGR 0 | FLT3 = 0 | FYN 0 | GSK3A 0 | HER2 = 0 | INSRR 0

COc1ccc(C(=C2C(=O)Nc3ccccc32)c2ccc(OC)cc2)cc1 (10 µM)
inactive: EGFR 0 | EGFR_G719S 0 | EGFR_G719S_T790M 0 | EGFR_L718V 0 | EGFR_L858R 0 | EGFR_L861Q 0 | EGFR_T790M 0 | EPHA2 = 0 | ERBB3 = 0 | [1] 0 | ERN1 = 0 | FGFR1 = 0 | FGFR2 = 0 | FGFR3 = 0 | FGR 0 | FLT3 = 0 | FYN 0 | GSK3A 0 | HER2 = 0 | INSRR 0

COc1cc2c[n+](C)c3c4cc5c(cc4ccc3c2cc1OC)OCO5 [Nitidine (chloride)] (2 µM)
inactive: EGFR 0 | EGFR_G719S 0 | EGFR_G719S_T790M 0 | EGFR_L718V 0 | EGFR_L858R 0 | EGFR_L861Q 0 | EGFR_T790M 0 | EPHA2 = 0 | ERBB3 = 0 | [1] 0 | ERN1 = 0 | FGFR1 = 0 | FGFR2 = 0 | FGFR3 = 0 | FGR 0 | FLT3 = 0 | FYN 0 | GSK3A 0 | HER2 = 0 | INSRR 0
